From article doi:10.1101/2022.02.08.479597
Results are given in words; binding and its absence hold for the method and conditions named. Binding seen in cells or lysates may run through a third protein. Some binding calls cover weakened binding; strength is not graded here.

Sequences of proteins named here, by UniProt entry; tags and fusion partners are left off.
UniProt Q9HC29: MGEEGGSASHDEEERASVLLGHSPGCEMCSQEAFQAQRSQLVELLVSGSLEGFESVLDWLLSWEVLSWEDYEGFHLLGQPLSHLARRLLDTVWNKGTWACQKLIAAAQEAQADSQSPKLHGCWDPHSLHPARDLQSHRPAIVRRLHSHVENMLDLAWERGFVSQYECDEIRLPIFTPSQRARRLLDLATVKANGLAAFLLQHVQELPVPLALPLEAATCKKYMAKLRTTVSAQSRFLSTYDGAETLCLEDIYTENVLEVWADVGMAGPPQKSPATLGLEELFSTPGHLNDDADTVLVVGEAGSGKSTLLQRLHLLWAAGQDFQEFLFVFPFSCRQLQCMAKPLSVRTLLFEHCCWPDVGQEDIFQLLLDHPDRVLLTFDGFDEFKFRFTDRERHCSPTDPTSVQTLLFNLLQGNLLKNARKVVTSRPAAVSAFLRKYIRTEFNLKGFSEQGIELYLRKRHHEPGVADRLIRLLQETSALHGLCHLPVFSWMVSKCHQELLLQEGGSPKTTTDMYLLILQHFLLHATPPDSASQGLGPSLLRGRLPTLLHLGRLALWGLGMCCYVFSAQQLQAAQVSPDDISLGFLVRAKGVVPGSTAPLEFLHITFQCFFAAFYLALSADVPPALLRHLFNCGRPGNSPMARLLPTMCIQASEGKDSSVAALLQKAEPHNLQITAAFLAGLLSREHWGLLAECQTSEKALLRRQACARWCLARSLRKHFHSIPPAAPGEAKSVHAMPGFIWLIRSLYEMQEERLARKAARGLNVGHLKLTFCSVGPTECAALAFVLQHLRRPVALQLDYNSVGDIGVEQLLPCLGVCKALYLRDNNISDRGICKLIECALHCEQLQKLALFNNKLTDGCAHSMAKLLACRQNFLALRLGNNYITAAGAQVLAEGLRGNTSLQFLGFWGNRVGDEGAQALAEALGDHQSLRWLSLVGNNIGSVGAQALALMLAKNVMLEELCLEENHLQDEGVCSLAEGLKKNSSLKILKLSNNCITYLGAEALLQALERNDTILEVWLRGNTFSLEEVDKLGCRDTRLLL
UniProt P27708: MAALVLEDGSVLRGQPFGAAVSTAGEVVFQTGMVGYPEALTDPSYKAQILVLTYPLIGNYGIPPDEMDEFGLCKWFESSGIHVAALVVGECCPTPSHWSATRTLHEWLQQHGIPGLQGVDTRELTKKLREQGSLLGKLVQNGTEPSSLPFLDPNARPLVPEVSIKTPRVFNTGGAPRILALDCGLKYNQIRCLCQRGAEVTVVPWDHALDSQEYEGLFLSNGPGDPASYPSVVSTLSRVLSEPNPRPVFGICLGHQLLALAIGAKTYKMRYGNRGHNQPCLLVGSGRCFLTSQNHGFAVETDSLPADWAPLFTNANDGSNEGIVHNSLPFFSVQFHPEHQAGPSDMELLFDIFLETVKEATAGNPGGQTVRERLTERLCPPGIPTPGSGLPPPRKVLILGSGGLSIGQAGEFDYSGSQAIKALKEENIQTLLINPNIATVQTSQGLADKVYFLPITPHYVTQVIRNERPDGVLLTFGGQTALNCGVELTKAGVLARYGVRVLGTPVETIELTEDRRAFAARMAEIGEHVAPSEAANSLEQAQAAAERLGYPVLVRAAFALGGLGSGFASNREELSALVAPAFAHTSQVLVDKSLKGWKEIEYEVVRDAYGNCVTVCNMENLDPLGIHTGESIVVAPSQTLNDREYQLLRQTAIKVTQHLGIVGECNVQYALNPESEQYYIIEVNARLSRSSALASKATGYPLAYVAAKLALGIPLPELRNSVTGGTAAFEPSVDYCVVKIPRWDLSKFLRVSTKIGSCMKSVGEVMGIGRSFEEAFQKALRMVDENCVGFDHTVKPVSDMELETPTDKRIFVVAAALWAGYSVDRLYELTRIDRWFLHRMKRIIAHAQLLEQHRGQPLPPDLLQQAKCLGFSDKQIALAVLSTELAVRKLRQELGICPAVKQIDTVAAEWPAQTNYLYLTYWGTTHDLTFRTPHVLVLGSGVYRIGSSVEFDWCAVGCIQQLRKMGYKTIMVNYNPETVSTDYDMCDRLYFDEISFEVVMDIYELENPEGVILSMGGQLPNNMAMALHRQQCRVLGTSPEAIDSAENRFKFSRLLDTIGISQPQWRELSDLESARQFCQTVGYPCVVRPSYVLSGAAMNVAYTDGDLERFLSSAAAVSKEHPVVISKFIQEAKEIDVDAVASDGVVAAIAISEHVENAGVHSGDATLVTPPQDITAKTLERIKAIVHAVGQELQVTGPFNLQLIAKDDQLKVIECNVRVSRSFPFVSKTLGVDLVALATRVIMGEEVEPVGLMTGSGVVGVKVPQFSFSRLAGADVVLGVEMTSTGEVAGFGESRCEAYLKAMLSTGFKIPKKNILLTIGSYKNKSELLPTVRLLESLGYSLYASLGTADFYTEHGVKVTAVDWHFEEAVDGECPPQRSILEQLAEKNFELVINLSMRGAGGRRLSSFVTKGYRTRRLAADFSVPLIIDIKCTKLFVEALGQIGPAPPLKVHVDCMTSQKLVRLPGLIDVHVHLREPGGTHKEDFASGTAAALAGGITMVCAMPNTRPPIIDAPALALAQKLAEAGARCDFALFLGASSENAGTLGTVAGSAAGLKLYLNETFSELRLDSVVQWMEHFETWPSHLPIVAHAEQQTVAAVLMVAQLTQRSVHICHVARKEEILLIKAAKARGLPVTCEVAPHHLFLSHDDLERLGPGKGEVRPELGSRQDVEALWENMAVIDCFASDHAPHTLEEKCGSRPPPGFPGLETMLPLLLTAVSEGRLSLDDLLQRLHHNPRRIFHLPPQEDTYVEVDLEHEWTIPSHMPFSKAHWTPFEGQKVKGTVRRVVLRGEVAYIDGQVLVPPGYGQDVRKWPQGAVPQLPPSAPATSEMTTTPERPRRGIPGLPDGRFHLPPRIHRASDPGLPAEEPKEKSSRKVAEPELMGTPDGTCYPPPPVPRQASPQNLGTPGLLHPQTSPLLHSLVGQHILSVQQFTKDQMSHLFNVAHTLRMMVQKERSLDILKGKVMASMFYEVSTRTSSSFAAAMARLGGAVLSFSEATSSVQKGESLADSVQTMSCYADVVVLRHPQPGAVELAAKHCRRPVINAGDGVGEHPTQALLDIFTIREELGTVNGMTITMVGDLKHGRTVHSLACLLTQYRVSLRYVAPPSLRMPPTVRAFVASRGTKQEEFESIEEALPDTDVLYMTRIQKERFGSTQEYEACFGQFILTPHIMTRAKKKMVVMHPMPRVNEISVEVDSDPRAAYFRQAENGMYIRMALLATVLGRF

Target: nucleotide-binding oligomerization domain 2 (NOD2), HA-tagged (UniProt Q9HC29)
Assay: co-IP

In the case of “carbamoyl-phosphate synthetase 2/ aspartate transcarbamylase/ dihydroorotase (CAD), His-FLAG-tagged (from UniProt P27708 1-2225) (enzyme)”, the binding is reported as “binds”.
